# Measured values published in PubChem BioAssay AID1347423 (Functional Genomics Laboratory (NCATS/FGL), 2020).
# In all, about 52,000 sequences went through this assay and about 210 (0.4%) were called active.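 How the source made its calls: active means gene whose silencing raises cell survival under the drug, median off-target-corrected z-score across its silencing RNAs 2 or more; inactive means the rest.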 This is one part of the list.
# Assay: Resistance to Poly (ADP-Ribose) Polymerase inhibitor: Gene Identification via Genome-wide siRNA Screen
# Conditions: mouse BRCA2 R2336H ES cells, olaparib, CellTiter-Glo viability; active compounds read high
# Procedure, shortened: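 Mouse BRCA2 R2336H ES cells were reverse-transfected with siRNA (20 nM final), treated at 48 h with 500 nM olaparib, and read by CellTiter-Glo after 72 h. Scores: MAD-based z per siRNA, median per gene, seed off-target correction.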
row,Sequence,z-score
1,GCAACAACCACCAAAUCUATT against Muc10,inactive: -1.45
2,CCUGUGCUCUGAGUUUGGCTT against 1700111I05Rik,inactive: -1.94
3,GCCUACAAGCCAUGAACAATT against Mybbp1a,inactive: -1.84
4,GGCAAGCUUACAAAAUGGATT against Pgbd5,inactive: 0.572
5,CGGUAUCAACAUUCUGGCUTT against Clm6,inactive: 0.767
6,GCAGACAAAGAUCCUAUGCTT against Atp2b3,inactive: -1.83
7,CCCACAGCUCUGACAUUUUTT against Fbxo6b,inactive: -0.82
8,GGCUGAAGCAGUCUGUUGCTT against Rpp14,inactive: -0.655
9,CCCUCAAUCUAACAGUGCATT against Dsg1b,inactive: -0.599
10,GGAGAGGAAGAUUUUCUCCTT against 1700019P01Rik,inactive: 2.18
11,UAACCAAGAGGGUAAAAAUTT against ADAM26b,inactive: 0.782
12,GGAAAAUCUAUAGGUAGAGTT against B230104P22Rik,inactive: 1.51
13,CCAAGUGGUACUAAUAAAUTT against Ptpn4,inactive: 0.327
14,GCUGAUUUUAACAAUACCUTT against Fos,inactive: 1.16
15,GCGGGUGUACUUAUGGUGATT against Glul,inactive: -0.00283
16,GGUAUGGCGUAAACCAGCUTT against Alad,inactive: 0.941
17,GCUAGAUCCCGUGCUUAAGTT against Bpy2ip1,inactive: 2.09
18,GGGCCACACAGAAAUGGUUTT against Ank1,inactive: 0.219
19,GCCAAUAAAUCUCUUCCAATT against 0610006I08Rik,inactive: 0.682
20,CGGGAUCCAGCCUCUAAGUTT against Palm,inactive: 0.0555
21,GGACUUUGCUAAAUCCUGUTT against Edg5,inactive: 0.772
22,GCUCUGGACUUCGGUAGAUTT against Adrb1,inactive: 1.32
23,GGGUUUUCUUGUGUGAAAATT against 2510048O06Rik,inactive: -3.5
24,GAUUAAUAGUGGUUUCUGATT against Olfr1219,inactive: -0.34
25,CCAUGUACCAGAUUAAGUATT against Krt2-8,inactive: -0.275
26,GCCUUCUGAUAACCUACUATT against Mefv,inactive: -0.353

row,Sequence,z-score
1,CGUCACUGGUGGUAUCAACTT against MGI:3576664,inactive: 0.0983
2,GCCUGGAUUUAAUUUAUGGTT against Sv2a,inactive: 1.55
3,GGGACUGUCCUUUUUGAAATT against Unc119,inactive: 0.266
4,GGUGGAUUUGAACCCAAAATT against 1810055D05Rik,inactive: 1.04
5,GGAAGUCAGUGAAAAAAUUTT against Csng,inactive: -0.182
6,GUAAGCAGCAACAGAGGCUTT against Tnfsf7,inactive: -2.15
7,GGGAUGGAAGACGUACAGATT against Alox12e,inactive: -0.347
8,GGUCAAAAACUUGACUCGUTT against BC020354,inactive: -1.52
9,GGAUCUCGUGGGCUACAUUTT against 1300013J15Rik,inactive: -2.34
10,GCUGAUGGCACUAAACACUTT against BC038479,inactive: 0.125
11,GGAUUACACACCUACGAUCTT against Taf10,inactive: 1.4
12,GGAGACUUCAGUGCCUCUUTT against Slc16a11,inactive: -1.36
13,GGUUCCAUGAGAAAAGGUUTT against F2r,inactive: -0.549
14,GGCCGAUUGUGAUGAAUUCTT against Depdc1b,inactive: -0.19
15,GGGCCAAACCCAGAACUAUTT against Sema4g,inactive: -0.77
16,GGUGAAGAGGAAGAUCCUGTT against Dullard,inactive: 1.48
17,GGGUGCCGUGGUCAUUUUATT against Ccnd3,inactive: -1.18
18,GGCCUUCUAUACUACAGACTT against Hdac1,inactive: 0.26
19,GGCUAACUUUGACACGAACTT against Cyfip2,inactive: -0.309
20,GCAUGUCCAAAGUGGUACCTT against Srd5a2l2,inactive: 1.05
21,GGAAUUUCUUCAGGACACUTT against Procr,inactive: 0.479
22,GGAGUUUGAUCUGCUUCGGTT against Kctd6,inactive: 0.442
23,GGUGAUAUUGCCUAGGUACTT against Fmod,inactive: 0.475
24,CCGUAUGAUUGUCCAAGAGTT against Nckipsd,inactive: 0.477
25,GGACCUCUUGUAUUUAUAATT against 6030463G20Rik,inactive: -0.711
26,GCGUGUUCACUUGUGUGGUTT against C330006K01Rik,inactive: 0.0937

row,Sequence,z-score
1,GAUGGUCACCCUGCUGAUUTT against Cklfsf7,inactive: 1.73
2,GGACCGUGUCUCUGGAAAATT against 2310016C16Rik,inactive: -0.309
3,GGAAGCUGAUGGCUAUGACTT against Arc,inactive: -1.62
4,GGUGAUUAUCGAGAUGAUCTT against Dpagt1,inactive: 1.16
5,GGAGAAACCUGUGUGCAGATT against Tulp4,inactive: 0.613
6,GCUACAAUAUGACAAGUGUTT against Adamts5,active: 2.82
7,GCUUGUAUUGCUUGUCUUUTT against Olfr172,inactive: 0.463
8,GGUGGACACAGCUUAAAGCTT against V1rf3,inactive: -0.815
9,GGAAAGAAUGUUUUGUUUCTT against Phex,inactive: 0.215
10,CGAUUACAGCCUUUGUAGATT against Atp2a2,inactive: -0.805
11,CCACACUUGCUGAAUACAGTT against 2810410L24Rik,inactive: 0.945
12,GGUACUGAAUAGGACAAAGTT against Stra8,inactive: -0.703
13,GCGGCUCCAAAAUUGUGCUTT against Ipo13,inactive: -0.703
14,GGAAUACAGUCUUUAUAUGTT against Slco4c1,inactive: 0.443
15,GGUGCUGAGCAUGGUGUUATT against Spag4,inactive: -0.904
16,GCUAAGUGUAGAAAACAGGTT against Shox2,inactive: 0.164
17,GGCAUAUCAACUUUCUCGATT against p,inactive: 1.09
18,GGACUCCACUUUUGAAAACTT against 1810020G14Rik,inactive: 0.707
19,GCCUCUUGCCUGAUUACCUTT against Mja1l,inactive: 0.0856
20,UCGCAUGCUCAUUGGCAUGTT against MGC62475,inactive: 0.239
21,CCCAUGGGCAGAUGAAAGCTT against Olfr1441,inactive: 0.594
22,CGAGAACAGAGGUUUUUAATT against Mxi1,inactive: -0.947
23,CCAAAAUGAACAUCAACUCTT against A030013D21,inactive: 0.832
24,GGCAUCCGUGUGUCUCUAGTT against 5730457F11Rik,active: -2.13
25,GGUUGUGAAACGAUGCCCUTT against Trp63,inactive: 0.559
26,GGCUCGGAAAGAAAAGAACTT against Sh2bp1,inactive: -1.95

# Random excerpt: 7 records from the list, in no set order.
row,Sequence,z-score
18,GGACUCCACUUUUGAAAACTT against 1810020G14Rik,inactive: 0.707
8,GGUGGACACAGCUUAAAGCTT against V1rf3,inactive: -0.815
1,GAUGGUCACCCUGCUGAUUTT against Cklfsf7,inactive: 1.73
7,GCUUGUAUUGCUUGUCUUUTT against Olfr172,inactive: 0.463
3,GGAAGCUGAUGGCUAUGACTT against Arc,inactive: -1.62
9,GGAAAGAAUGUUUUGUUUCTT against Phex,inactive: 0.215
17,GGCAUAUCAACUUUCUCGATT against p,inactive: 1.09

# Continuation.

row,Sequence,z-score
1,GGCAGUGAAGAGAAGAAGUTT against Trub2,inactive: -1.55
2,GGCUUUUACCGCCAAGACGTT against Snx11,inactive: 0.931
3,GGAGAGAGAGAAGAAGGAUTT against 2610510D14Rik,inactive: -1.13
4,GGCGGAUGAACAAAGUUGGTT against Paf53,inactive: -1.29
5,GCGGGAGUACUACGUCAAUTT against Reps2,inactive: -1.12
6,GGAGAUUAUCAGGGAAGAGTT against Pvrl3,inactive: 0.238
7,GGGCUUUGUUUCCAAGUUGTT against D730046L02Rik,inactive: -0.678
8,GGACAAGCUGAAGACGCACTT against Zfp64,inactive: -1.13
9,GGACAGCUACAUAAGCUUUTT against Il17d,inactive: 0.792
10,GGUUCUUGUUCAUUCUCUUTT against Slc4a4,inactive: 1.88
11,GCAACUGGCAGUCGCCUAUTT against BC027344,inactive: -0.84
12,GGUCUUCGAAACACAGCUGTT against 4933417E01Rik,inactive: 0.0819
13,GGACUACCUAUGGUUAAAATT against Nup93,inactive: 0.0164
14,CCCAUAUCUUAAUCAAAAGTT against Akr1e1,inactive: -0.489
15,GGUGGAUCCCAACUGUUUCTT against Akap10,inactive: 0.373
16,GGUCUUUGACAGAAUAAAATT against C030002N13Rik,inactive: 0.706
17,GGUGAUGAAGAGGUUCCCUTT against Fzd4,inactive: 0.344
18,GGAGAGUAUACCUGUCUGGTT against Fgfr4,inactive: 0.0349
19,GGAGAAAACGUGAUGAGGATT against A330064G03Rik,inactive: -1.42
20,GGAAGAUGUAUUCUUCUCCTT against Gemin4,inactive: -0.865
21,GGGAUUCAAACAGGUCUUGTT against Ahsg,inactive: -0.981
22,GGUUAUGAAACUGAGAAAGTT against Mid2,inactive: 0.157
23,AAUGCUAUUAUACCAACUGTT against V1rh5,inactive: 0.612
24,GGAUGACCAAAAGGACAAUTT against Galp,inactive: -1.46
25,GGUGCUGAGGCUGAUUCUCTT against Solh,inactive: 0.973
26,GGGAUCAGACUGUAUAGACTT against Chchd4,inactive: 0.242
